From patent publication US20160018417A1
These are yes or no findings as the source states them, for the method shown. Some entries that bind do so weakly or less than the wild type.

By UniProt entry, the sequences of proteins in these tests, tags left out. Where a name states a change or a piece, a line headed by the entry shows the natural chain unless it says otherwise.
UniProt P10636: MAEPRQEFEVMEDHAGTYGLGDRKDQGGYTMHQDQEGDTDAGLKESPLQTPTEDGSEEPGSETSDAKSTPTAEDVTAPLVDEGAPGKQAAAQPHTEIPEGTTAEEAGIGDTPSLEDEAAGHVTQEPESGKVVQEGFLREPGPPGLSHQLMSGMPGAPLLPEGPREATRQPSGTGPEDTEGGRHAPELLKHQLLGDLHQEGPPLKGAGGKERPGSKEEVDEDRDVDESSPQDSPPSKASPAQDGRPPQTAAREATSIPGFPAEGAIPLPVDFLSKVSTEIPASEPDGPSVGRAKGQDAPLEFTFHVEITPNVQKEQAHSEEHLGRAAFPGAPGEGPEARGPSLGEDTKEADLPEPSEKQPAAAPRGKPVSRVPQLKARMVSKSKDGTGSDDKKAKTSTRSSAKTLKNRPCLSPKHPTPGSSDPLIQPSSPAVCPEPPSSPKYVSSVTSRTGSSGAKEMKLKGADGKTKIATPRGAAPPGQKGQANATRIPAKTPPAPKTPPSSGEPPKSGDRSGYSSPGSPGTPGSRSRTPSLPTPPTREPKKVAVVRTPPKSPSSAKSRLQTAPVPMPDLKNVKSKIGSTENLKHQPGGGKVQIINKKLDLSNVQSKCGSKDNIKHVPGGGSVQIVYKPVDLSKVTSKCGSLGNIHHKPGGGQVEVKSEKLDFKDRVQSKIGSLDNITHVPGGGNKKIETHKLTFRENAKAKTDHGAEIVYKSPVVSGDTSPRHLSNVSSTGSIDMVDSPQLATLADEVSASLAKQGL

Assays:
[1] = molecular target: T1, ΔSil1Δ construct (Sil1 construct lacking ER targeting and ER retention signals) (human) (UniProt Q9H173); test: immunoprecipitation of human tau from co-transfected cells, Western blot
T1 sequence: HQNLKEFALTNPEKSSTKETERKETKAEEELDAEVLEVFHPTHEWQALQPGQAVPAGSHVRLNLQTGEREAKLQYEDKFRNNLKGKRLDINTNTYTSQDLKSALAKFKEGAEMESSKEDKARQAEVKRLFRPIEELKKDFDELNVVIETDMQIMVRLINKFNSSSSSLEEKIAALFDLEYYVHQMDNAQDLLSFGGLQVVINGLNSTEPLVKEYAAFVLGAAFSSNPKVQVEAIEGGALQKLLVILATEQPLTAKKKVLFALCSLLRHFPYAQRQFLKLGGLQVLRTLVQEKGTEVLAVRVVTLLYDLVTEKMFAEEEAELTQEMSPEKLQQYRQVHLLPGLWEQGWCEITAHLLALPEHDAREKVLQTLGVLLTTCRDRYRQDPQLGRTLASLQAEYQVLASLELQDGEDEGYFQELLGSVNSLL

[2] = molecular target: T2, ΔSil1 construct (Sil1 construct lacking an ER signal) (human) (UniProt Q9H173); test: as above
T2 sequence: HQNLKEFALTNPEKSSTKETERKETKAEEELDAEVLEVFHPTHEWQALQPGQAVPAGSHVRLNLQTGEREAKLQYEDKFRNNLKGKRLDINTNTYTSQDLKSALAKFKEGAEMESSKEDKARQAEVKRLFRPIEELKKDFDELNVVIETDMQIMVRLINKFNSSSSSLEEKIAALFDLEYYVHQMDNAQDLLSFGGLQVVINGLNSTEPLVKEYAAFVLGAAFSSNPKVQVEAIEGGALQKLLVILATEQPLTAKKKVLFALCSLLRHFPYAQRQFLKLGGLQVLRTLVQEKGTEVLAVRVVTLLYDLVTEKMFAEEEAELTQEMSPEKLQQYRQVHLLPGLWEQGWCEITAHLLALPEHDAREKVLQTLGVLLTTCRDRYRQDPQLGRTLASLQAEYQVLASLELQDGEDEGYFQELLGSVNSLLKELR

binding [1]: binds
binding [2]: binds
Substance: human tau (hTau) (from UniProt P10636 2-758)
